Results on one compound are retold here after paper PMC9609924, “In Vitro Characterization of Inhibitors for Lung A549 and Leukemia K562 Cell Lines from Fungal Transformation of Arecoline Supported by In Silico Docking to M3-mAChR and ADME Prediction” (Pharmaceuticals, 2022).

As a reminder, the IC50 is the concentration that gives 50% inhibition.

The test system of test [1] is non-small-cell lung cancer A549 cell line. Nature of the test: cells. Conditions: Homo sapiens, A549, 48 h, read-out: Cytotoxicity IC50 ± SD, Non-Small-Cell Lung Cancer A549. On the procedure:
Cell lines were obtained from the American Type Culture Collection (ATCC). Cells were cultured using Dulbecco’s Modified Eagle’s Medium (DMEM) (Invitrogen/Life Technologies, Waltham, MA, USA) supplemented with 10% fetal bovine serum (FBS, Hyclone, Logan, UT, USA), 10 µg/mL of insulin (Sigma Aldrich, St. Louis, MO, USA) and 1% mixture of penicillin and streptomycin. After incubation for 48 h with the isolated compounds, the viability of cells was measured using an MTT assay to determine the toxic concentration for each compound using the microplate reader according to the published procedures.

Test [2] has as its system normal blood cell PCS-800-016. Nature of the test: MTT cytotoxicity assay, normal blood cell PCS-800-016. The format is cell-based. The settings on record: IC50 against normal PCS-800-016 divided by IC50 against K562. As for the experimental part: (§1) The selectivity index identifies the selectivity of the tested compounds toward the cancer cell line and is calculated by dividing the IC50 against the normal cell line by the IC50 against the cancer cells.
For orientation: Tetrazolium dyes change colour on reduction, which living cells bring about.

Test [3] deals with normal lung cell WI38. Nature of the test: MTT cytotoxicity assay, normal lung cell WI38. The format is cell-based. The settings on record: IC50 against normal WI38 divided by IC50 against A549. As for the experimental part:
as §1

`CN[C@@H]1C[C@H]2O[C@@](C)([C@@H]1OC)n1c3ccccc3c3c4c(c5c6ccccc6n2c5c31)C(=O)NC4` [Staurosporine, reference compound]: the IC50 in test [1] was determined as 10.5 ± 0.64 µM. Further, in test [2], the “SI (Blood Cell), selectivity index” value was 2.56. For the same compound, the “SI (Lung), selectivity index” value in test [3] is listed as 1.57.
